From the supplement of paper PMC6411743
± gives the standard deviation of the averaged measurements. The entries are a selection whose mix differs from that of the whole data set. Most values lie at the level of the controls, where differences are scatter.

The chains behind the UniProt entries cited, without tags or fusion partners. Where a name states a change or a piece, a line headed by the entry shows the natural chain unless it says otherwise.
UniProt Q16822, whole entry: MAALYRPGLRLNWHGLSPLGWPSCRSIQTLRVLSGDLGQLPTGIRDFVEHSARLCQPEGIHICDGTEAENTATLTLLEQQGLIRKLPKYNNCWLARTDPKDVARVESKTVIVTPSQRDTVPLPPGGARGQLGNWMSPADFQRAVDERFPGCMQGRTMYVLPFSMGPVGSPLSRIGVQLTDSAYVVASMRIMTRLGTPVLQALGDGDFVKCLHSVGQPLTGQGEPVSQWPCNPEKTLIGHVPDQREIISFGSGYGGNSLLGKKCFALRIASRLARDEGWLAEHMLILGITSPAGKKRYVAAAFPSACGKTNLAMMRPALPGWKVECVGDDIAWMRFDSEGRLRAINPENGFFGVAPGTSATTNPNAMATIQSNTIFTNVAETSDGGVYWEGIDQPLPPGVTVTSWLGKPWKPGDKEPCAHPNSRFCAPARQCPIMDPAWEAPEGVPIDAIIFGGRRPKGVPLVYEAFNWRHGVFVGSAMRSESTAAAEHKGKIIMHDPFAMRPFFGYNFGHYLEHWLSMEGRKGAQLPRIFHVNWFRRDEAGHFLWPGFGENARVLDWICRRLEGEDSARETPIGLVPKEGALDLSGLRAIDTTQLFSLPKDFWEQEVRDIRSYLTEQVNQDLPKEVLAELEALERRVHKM
UniProt P57678: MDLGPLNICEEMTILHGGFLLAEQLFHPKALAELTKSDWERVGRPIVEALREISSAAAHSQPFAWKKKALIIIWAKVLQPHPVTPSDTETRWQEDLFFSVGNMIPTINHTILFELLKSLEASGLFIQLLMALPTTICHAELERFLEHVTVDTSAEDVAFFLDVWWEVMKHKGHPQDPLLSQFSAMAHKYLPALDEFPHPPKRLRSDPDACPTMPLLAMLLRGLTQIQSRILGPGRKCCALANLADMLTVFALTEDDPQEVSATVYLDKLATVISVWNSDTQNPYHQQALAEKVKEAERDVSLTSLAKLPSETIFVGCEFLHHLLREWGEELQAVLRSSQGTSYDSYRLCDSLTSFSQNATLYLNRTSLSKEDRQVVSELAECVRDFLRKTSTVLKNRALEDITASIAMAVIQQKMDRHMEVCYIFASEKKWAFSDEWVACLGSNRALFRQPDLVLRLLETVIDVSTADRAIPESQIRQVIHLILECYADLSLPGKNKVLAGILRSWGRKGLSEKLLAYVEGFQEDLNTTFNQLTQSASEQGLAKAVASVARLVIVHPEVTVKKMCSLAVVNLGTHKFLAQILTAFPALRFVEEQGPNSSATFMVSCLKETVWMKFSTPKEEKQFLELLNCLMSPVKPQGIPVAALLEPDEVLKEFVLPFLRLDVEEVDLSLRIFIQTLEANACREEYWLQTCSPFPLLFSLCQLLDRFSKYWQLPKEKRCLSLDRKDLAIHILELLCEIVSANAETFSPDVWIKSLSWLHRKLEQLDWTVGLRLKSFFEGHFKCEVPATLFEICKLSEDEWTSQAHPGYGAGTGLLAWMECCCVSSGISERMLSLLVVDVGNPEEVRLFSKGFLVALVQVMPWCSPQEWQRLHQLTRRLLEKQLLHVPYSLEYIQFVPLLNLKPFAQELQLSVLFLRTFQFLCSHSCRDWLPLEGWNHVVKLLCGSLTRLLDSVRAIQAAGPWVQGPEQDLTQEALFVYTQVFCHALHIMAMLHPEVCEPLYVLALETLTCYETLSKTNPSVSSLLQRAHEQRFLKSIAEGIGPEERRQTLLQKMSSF
UniProt Q8IXM6: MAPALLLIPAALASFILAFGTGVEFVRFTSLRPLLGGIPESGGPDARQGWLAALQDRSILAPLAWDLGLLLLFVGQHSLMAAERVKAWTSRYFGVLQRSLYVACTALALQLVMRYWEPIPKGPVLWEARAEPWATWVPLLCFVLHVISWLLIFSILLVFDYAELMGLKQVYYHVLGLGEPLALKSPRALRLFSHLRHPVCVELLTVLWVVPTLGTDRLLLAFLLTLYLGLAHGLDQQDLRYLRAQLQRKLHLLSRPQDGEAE
UniProt Q9UHR5: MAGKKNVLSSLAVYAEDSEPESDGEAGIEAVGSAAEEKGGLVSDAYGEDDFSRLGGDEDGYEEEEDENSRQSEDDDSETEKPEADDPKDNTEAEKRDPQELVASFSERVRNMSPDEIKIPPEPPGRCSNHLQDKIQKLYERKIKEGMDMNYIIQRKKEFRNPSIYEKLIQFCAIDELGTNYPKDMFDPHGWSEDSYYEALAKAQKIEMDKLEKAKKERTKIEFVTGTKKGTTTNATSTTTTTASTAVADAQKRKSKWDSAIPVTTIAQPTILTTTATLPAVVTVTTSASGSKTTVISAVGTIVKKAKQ
UniProt P04844: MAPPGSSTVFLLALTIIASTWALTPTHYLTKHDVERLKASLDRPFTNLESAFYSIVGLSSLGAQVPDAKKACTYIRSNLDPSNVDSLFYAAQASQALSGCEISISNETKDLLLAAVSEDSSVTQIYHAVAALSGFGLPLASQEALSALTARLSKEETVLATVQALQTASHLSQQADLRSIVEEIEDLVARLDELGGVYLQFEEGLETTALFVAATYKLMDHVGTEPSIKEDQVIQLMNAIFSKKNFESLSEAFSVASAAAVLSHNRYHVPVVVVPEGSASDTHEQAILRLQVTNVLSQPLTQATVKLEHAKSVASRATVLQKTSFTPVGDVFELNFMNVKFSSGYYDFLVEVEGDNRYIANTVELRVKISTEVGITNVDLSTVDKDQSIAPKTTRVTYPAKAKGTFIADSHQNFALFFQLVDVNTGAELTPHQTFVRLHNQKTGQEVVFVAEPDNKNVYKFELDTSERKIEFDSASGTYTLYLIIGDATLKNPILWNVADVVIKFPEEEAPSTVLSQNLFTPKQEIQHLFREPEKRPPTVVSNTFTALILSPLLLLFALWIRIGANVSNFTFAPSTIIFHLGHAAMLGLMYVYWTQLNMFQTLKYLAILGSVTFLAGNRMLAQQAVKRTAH
UniProt O95067, whole entry, looked up: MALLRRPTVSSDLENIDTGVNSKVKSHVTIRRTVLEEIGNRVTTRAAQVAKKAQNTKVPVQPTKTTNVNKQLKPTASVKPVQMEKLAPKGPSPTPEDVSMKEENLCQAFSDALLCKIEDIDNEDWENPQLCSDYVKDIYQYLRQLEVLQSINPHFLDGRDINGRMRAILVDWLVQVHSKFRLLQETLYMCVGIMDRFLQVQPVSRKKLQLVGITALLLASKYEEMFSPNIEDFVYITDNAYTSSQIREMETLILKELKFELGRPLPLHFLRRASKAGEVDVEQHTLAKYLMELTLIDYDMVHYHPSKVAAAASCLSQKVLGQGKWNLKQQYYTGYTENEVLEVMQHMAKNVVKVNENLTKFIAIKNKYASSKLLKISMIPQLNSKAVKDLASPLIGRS
UniProt P52824: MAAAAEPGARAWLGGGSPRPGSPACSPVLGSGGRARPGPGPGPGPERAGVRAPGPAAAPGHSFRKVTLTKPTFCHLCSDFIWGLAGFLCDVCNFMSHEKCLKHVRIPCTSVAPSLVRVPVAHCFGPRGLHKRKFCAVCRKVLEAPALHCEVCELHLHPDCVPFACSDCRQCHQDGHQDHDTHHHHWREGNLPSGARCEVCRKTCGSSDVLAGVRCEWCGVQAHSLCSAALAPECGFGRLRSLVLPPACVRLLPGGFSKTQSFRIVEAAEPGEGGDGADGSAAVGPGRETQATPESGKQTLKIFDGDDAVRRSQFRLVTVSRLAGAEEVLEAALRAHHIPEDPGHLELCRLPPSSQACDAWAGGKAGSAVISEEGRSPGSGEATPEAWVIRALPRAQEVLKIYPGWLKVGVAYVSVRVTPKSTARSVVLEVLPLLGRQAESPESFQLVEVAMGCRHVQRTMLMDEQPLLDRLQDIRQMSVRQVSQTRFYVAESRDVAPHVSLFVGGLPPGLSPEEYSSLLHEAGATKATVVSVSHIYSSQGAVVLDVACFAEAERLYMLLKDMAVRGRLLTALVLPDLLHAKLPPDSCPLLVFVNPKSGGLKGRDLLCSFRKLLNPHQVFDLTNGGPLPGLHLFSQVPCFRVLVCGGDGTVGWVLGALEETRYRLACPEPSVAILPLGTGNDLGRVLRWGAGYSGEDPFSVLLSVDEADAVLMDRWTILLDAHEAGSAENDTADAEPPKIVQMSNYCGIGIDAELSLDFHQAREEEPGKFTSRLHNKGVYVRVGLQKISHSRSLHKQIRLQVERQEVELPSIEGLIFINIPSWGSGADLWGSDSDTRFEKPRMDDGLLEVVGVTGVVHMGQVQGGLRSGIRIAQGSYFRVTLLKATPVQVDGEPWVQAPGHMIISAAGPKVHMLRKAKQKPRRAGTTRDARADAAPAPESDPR
UniProt Q96N67: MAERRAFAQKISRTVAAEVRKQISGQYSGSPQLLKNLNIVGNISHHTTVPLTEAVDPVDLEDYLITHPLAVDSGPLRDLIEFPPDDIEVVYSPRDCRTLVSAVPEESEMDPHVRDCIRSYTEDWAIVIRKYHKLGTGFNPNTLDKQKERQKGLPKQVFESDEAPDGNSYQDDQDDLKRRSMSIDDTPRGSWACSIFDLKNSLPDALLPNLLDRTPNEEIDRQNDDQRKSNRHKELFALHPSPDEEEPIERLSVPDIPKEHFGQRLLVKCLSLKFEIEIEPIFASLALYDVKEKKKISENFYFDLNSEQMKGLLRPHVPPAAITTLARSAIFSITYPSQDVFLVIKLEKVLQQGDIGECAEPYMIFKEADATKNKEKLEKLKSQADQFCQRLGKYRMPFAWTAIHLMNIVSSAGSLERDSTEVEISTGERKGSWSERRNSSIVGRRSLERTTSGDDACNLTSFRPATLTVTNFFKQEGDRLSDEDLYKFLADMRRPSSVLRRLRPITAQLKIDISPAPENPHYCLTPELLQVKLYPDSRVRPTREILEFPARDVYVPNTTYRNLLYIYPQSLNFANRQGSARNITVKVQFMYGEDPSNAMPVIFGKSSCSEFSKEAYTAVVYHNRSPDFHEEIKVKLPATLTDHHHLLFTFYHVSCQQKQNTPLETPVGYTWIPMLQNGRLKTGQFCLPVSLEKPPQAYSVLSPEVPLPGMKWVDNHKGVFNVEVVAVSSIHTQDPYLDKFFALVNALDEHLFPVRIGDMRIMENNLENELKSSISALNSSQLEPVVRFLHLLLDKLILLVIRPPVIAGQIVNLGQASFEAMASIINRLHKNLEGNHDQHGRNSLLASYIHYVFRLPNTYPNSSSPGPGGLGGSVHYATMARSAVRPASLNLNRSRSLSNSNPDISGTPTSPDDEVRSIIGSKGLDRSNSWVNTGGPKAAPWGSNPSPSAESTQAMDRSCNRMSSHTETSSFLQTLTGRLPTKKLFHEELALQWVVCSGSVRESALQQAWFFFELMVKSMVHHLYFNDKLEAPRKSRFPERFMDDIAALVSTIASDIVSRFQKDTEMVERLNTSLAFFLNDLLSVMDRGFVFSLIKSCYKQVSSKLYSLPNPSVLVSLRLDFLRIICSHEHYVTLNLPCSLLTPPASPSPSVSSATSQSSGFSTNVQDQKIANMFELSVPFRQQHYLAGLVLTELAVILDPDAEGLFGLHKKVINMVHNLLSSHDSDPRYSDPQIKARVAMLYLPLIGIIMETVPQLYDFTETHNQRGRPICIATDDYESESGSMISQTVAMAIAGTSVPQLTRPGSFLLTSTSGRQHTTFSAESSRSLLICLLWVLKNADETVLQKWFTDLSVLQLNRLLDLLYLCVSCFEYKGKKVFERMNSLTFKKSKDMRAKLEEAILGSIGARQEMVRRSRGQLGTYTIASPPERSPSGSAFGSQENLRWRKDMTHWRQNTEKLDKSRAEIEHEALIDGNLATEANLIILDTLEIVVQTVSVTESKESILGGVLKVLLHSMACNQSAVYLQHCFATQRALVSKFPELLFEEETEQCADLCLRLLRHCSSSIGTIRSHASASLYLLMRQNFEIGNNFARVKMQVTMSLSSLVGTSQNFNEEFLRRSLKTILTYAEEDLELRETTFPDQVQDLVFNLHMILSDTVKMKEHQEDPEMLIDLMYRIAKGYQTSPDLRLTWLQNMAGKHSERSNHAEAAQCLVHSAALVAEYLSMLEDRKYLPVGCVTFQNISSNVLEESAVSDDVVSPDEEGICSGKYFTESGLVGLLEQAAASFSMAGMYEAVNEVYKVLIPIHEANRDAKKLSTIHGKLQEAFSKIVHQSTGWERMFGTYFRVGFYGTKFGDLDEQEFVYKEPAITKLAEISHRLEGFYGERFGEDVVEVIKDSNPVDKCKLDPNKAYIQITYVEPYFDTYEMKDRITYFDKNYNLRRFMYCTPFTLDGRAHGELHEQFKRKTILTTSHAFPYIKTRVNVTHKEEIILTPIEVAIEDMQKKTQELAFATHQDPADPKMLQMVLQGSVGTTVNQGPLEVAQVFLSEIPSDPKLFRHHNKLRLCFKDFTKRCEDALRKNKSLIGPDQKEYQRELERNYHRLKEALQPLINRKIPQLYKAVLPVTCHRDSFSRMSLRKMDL
UniProt Q6NW29: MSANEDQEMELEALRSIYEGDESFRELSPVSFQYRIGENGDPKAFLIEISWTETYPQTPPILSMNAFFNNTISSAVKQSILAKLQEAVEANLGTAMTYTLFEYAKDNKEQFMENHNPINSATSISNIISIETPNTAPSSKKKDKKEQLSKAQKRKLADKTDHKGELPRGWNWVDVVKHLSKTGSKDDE

Compound: Nc1ncnc2c1ncn2[C@@H]1O[C@H](COP(=O)(O)OP(=O)(O)OP(=O)(O)O)[C@@H](O)[C@H]1O [adenosine triphosphate]
Assay: NP40-soluble protein abundance relative to vehicle (solubility fold change) (ratio); higher = more soluble protein in presence of ATP
Procedure, shortened: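 Jurkat crude lysate (Dounce-homogenised) was treated with eight concentrations from 0.1 to 10 mM for 10 min at room temperature, then 3 min at 37 °C. It was solubilised with 0.8% NP40 and benzonase (60 min, 4 °C) and ultracentrifuged, and the supernatant was TMT-labelled for LC-MS/MS. Intensities were vsn-normalised, and the value is the fold change against the NP40-processed vehicle per replicate, from three independent experiments.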

| Target | NP40-soluble protein abundance (concentration: 0.1mM) | NP40-soluble protein abundance (concentration: 0.5mM) |
| --- | --- | --- |
| H7C1Z7 and related entries (UniProt Q9GZU7) | 1.02 ± 0.1 | 1.17 ± 0.23 |
| H0YM31 and related entries (UniProt Q16822) | 1.04 ± 0.069 | 1.01 ± 0.065 |
| H3BTB7 and related entries (UniProt Q5JPH6) | 0.976 ± 0.047 | 1.01 ± 0.063 |
| H7BXD5 and related entries (UniProt P28676) | 0.981 ± 0.029 | 0.799 ± 0.15 |
| J3QRD1 and related entries (UniProt P51648) | 1.03 ± 0.07 | 1.01 ± 0.015 |
| I3L0K9 and related entries (UniProt Q15027) | 1.03 ± 0.06 | 1.03 ± 0.032 |
| J3KNF4 and related entries (UniProt O14618) | 1.01 ± 0.057 | 0.974 ± 0.044 |
| I3L2B0 and related entries (UniProt O75153) | 1.02 ± 0.049 | 1 ± 0.041 |
| I3L2C7 and related entries (UniProt P57678) | 0.978 ± 0.072 | 0.982 ± 0.099 |
| H0YK61 and related entries (UniProt Q5J8M3) | 0.947 ± 0.041 | 0.974 ± 0.047 |
| K7EJC2 and related entries (UniProt Q9P107) | 1.04 ± 0.043 | 1.02 ± 0.022 |
| H0Y6T6 and related entries (UniProt Q8IXM6) | 0.969 ± 0.081 | 1 ± 0.022 |
| K7ERT1 and related entries (UniProt O00273) | 1.01 ± 0.041 | 0.994 ± 0.035 |
| H0YEM9 (UniProt Q8NCP5) | 1.06 ± 0.12 | 1.1 ± 0.14 |
| J3QQJ0 and related entries (UniProt Q9UHR5) | 0.935 ± 0.02 | 0.899 ± 0.02 |
| H0Y5M1 and related entries (UniProt P04844) | 1.06 ± 0.13 | 1.07 ± 0.097 |
| H7BYF2 and related entries (UniProt Q9BVL2) | 0.927 ± 0.072 | 0.882 ± 0.025 |
| H0Y6Y6 and related entries (UniProt P29017) | 0.941 ± 0.032 | 0.913 ± 0.066 |
| H1UBN3 and related entries (UniProt O95067+H1UBN3) | 0.996 ± 0.089 | 0.955 ± 0.084 |
| J3KN10 and related entries (UniProt P42356) | 1.04 ± 0.074 | 1.04 ± 0.056 |
| H0YA20 and related entries (UniProt P52824) | 0.981 ± 0.03 | 0.978 ± 0.025 |
| H0YEH1 and related entries (UniProt Q13492) | 0.967 ± 0.014 | 0.951 ± 0.051 |
| H0Y7L2 and related entries (UniProt Q96N67) | 1.06 ± 0.048 | 1.15 ± 0.037 |
| I3L4I4 and related entries (UniProt O75674) | 0.873 ± 0.027 | 0.925 ± 0.025 |
| H3BNT4 and related entries (UniProt Q99547) | 0.958 ± 0.064 | 1.03 ± 0.11 |
| K4DI92 and related entries (UniProt Q6NW29) | 0.925 ± 0.056 | 0.9 ± 0.053 |

Fetched one by one from the entries so far (two):

| Target | NP40-soluble protein abundance (concentration: 0.1mM) | NP40-soluble protein abundance (concentration: 0.5mM) |
| --- | --- | --- |
| H7BYF2 and related entries (UniProt Q9BVL2) | 0.927 ± 0.072 | 0.882 ± 0.025 |
| H0Y6Y6 and related entries (UniProt P29017) | 0.941 ± 0.032 | 0.913 ± 0.066 |
